# Data as given in PubChem BioAssay AID1259291 (Sanger Institute, 2017)
# Purpose: 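Find kinase and colorectal-cancer-mutated genes whose loss kills HT29 cells or aids anchor drugs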 (primary screen)
# Cells: HT29 human colorectal cancer cells
# Knock-down reagent: siRNA pool against human genes
# Challenge: anchor drugs added a day after transfection: BYL719 at 1 µM, cetuximab at 5 µg/ml or trametinib at 10 nM, or DMSO vehicle alone
# Measurement: 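Replicate-averaged viability relative to non-targeting pool, robust z-score based on control wells, plus per-drug synergy score for 1 µM BYL719, 5 µg/ml cetuximab and 10 nM trametinib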
# Scale: robust z-score, knock-down alone and viability, knock-down alone: higher = more viable cells
# Rule for the call: 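a knock-down alone scoring under -3 on robust z-score is called essential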
# Calls: active = essential (knock-down alone); inactive = no change alone
# In all, the deposit lists 794 reagents; below is a part drawn at random. Over the whole deposit, 15 (1.9%) were called active. 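Calls rest on knock-down alone; drug synergy scores do not affect them; drugs added a day post-transfection, DMSO vehicle as comparison.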 Entries without a mark were called inactive. Viability is capped at 1. Not all columns of the deposit are shown. Not given: the amount of reagent, the time to read-out.
Gene,PubChem SID,"robust z-score, knock-down alone","viability, knock-down alone (fraction of control)"
"PFKFB1 (6-phosphofructo-2-kinase/fructose-2,6-biphosphatase 1)",SID135621245,0.552,1
CDK2 (cyclin dependent kinase 2),SID56478596,0.552,1
"RAF1 (Raf-1 proto-oncogene, serine/threonine kinase)",SID152152442,0.552,1
PRKCQ (protein kinase C theta),SID56478674,0.552,1
CAMK1 (calcium/calmodulin dependent protein kinase I),SID56478929,0.552,1
MECOM (MDS1 and EVI1 complex locus),SID135621208,-0.0913,0.96
PGK2 (phosphoglycerate kinase 2),SID135621248,0.552,1
TEK (TEK receptor tyrosine kinase),SID152152932,0.552,1
SIK1 (salt inducible kinase 1),SID152146842,0.552,1
MAP3K15 (mitogen-activated protein kinase kinase kinase 15),SID152147179,0.552,1
PTK6 (protein tyrosine kinase 6),SID152152810,0.552,1
MAP4K2 (mitogen-activated protein kinase kinase kinase kinase 2),SID56478700,0.552,1
EFNB3 (ephrin B3),SID134315611,-0.842,0.913
PAK4 (p21 (RAC1) activated kinase 4),SID152147637,0.552,1
CIT (citron rho-interacting serine/threonine kinase),SID56478810,-0.0756,0.961
MYLK3 (myosin light chain kinase 3),SID152154935,0.552,1
FASTK (Fas activated serine/threonine kinase),SID56479004,0.552,1
SGK1 (serum/glucocorticoid regulated kinase 1),SID152156682,0.552,1
STK32A (serine/threonine kinase 32A),SID152151517,0.552,1
DMPK (DM1 protein kinase),SID135620855,0.552,1
CUL1 (cullin 1),SID134310265,-1.38,0.88
LATS1 (large tumor suppressor kinase 1),SID56478819,0.552,1
SIK3 (SIK family kinase 3),SID135620886,-0.0842,0.961
MAPKAPK2 (MAPK activated protein kinase 2),SID56478668,0.296,0.984
DUSP21 (dual specificity phosphatase 21),SID134312829,0.552,1
EPHB2 (EPH receptor B2),SID135620616,0.552,1
LRRK2 (leucine rich repeat kinase 2),SID152152689,0.552,1
PANK2 (pantothenate kinase 2),SID152147442,0.552,1
PAK5 (p21 (RAC1) activated kinase 5),SID56478749,-0.124,0.958
SRP72 (signal recognition particle 72),SID135623816,-0.11,0.959
PCBP1 (poly(rC) binding protein 1),SID134316528,0.552,1
MAP3K13 (mitogen-activated protein kinase kinase kinase 13),SID56478694,-0.598,0.929
ACVR2B (activin A receptor type 2B),SID135620907,0.552,1
AK5 (adenylate kinase 5),SID56478914,0.552,1
CSNK2B (casein kinase 2 beta),SID56479183,0.552,1
ULK4 (unc-51 like kinase 4),SID152148607,-0.33,0.945
TJP2 (tight junction protein 2),SID135621862,0.552,1
WHR1 (winged helix repair factor 1),SID152154332,0.552,1
PSTK (phosphoseryl-tRNA kinase),SID134320501,0.552,1
NME7 (NME/NM23 family member 7),SID56479121,0.552,1
MAP2K6 (mitogen-activated protein kinase kinase 6),SID135620765,-2.78,0.794
DTYMK (deoxythymidylate kinase),SID135621237,0.174,0.977
DGKG (diacylglycerol kinase gamma),SID152147412,0.314,0.985
CDKN2B (cyclin dependent kinase inhibitor 2B),SID135620642,-0.506,0.934
NEK9 (NIMA related kinase 9),SID56478903,-0.147,0.957
NTN4 (netrin 4),SID152155179,-2.22,0.828
PRKAA1 (protein kinase AMP-activated catalytic subunit alpha 1),SID152155693,0.552,1
PNKP (polynucleotide kinase 3'-phosphatase),SID56479144,-0.393,0.941
CALM3 (calmodulin 3),SID152148336,-0.582,0.93
PTPN11 (protein tyrosine phosphatase non-receptor type 11),SID134310183,0.552,1
PRKCG (protein kinase C gamma),SID56478828,-0.684,0.923
PRPS2 (phosphoribosyl pyrophosphate synthetase 2),SID152153546,0.185,0.977
LMBR1 (limb development membrane protein 1),SID152149374,-0.225,0.952
PDXK (pyridoxal kinase),SID56478979,-2.46,0.813
AK1 (adenylate kinase 1),SID152147390,0.552,1
"MOS (MOS proto-oncogene, serine/threonine kinase)",SID56478732,-0.244,0.951
EPHB6 (EPH receptor B6),SID152155826,-0.61,0.928
TTBK1 (tau tubulin kinase 1),SID135620866,-0.192,0.954
N4BP2 (NEDD4 binding protein 2),SID152151934,-0.213,0.953
NTRK3 (neurotrophic receptor tyrosine kinase 3),SID135620627,0.552,1
CLK3 (CDC like kinase 3),SID56478875,0.552,1
HIPK2 (homeodomain interacting protein kinase 2),SID56478619,0.552,1
CDK20 (cyclin dependent kinase 20),SID152152456,-0.381,0.942
